From US20080241130A1
No constants are given. Whether binding was seen depends on the method and setting. Some results given as binding are weak or reduced against the parent protein; the word gives no strength.

Columns and labels:
human IL-17R.Fc (human) [1] = assay: SPR (Biacore 2000), receptor.Fc amine-coupled, cytokine injected
human IL-17RC.Fc (human) [2] = assay: as above
human IL-17RC.Fc (human) [3] = assay: indirect sandwich ELISA: IL-17RC.Fc captured on goat anti-human IgG-Fc, biotinylated cytokine titrated, Poly-HRP streptavidin
human IL-17R.Fc (human) [4] = assay: indirect sandwich ELISA: IL-17R.Fc captured on goat anti-human IgG-Fc, biotinylated cytokine titrated, Poly-HRP streptavidin
human IL-17R.Fc (human) [5] = assay: indirect sandwich ELISA; receptor.Fc captured on goat anti-human IgG-Fc, biotinylated cytokine titrated
human IL-17RC.Fc (human) [6] = assay: as above

Measured: binding

B1: human IL-17F (ligand)
chain: RKIPKVGHTFFQKPESCPPVPGGSMKLDIGIINENQRVSMSRNIESRSTSPWNYTVTWDPNRYPSEVVQAQCRNLGCINAQGKEDISMNSVPIQQETLVVRRKHQGCSVSFQLEKVLVTVGCTCVTPVIHHVQ
modifications: biotinylated in the ELISA (FluoReporter Mini-biotin-XX kit); sites not stated
binds: all assays above
